This is one part of the list. Repeats are few or missing, and single values can be far off.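 The apoptosis fraction was the count of cleaved-PARP antibody-stained nuclei relative to all DNA-stained nuclei, imaged in 1,536-well plates. Screening doses were set so most cells survived, and baseline and induced cleaved-PARP levels vary greatly across cell lines.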
Assays:
Assay in all cases: cleaved PARP positive nuclei fraction relative to DMSO control; melanoma cells; higher = more apoptosis
Conditions in all cases: library dose: low library concentration; 72 h
501Mel = tested on: 501Mel
A101D = tested on: A101D
A2058 = tested on: A2058
C32 = tested on: C32
CBRC008 = tested on: CBRC008 (line from a melanoma biopsy)
CBRC014 = tested on: CBRC014 (line from a melanoma biopsy)
CBRC016 = tested on: CBRC016 (line from a melanoma biopsy)
CBRC017 = tested on: CBRC017 (line from a melanoma biopsy)
COLO792 = tested on: COLO792
COLO800 = tested on: COLO800
COLO829 = tested on: COLO829
G361 = tested on: G361
IPC-298 = tested on: IPC-298
IST-MEL1 = tested on: IST-MEL1
LB2518-MEL = tested on: LB2518-MEL
LOXIMVI = tested on: LOXIMVI
A375 = tested on: A375
CBRC013 = tested on: CBRC013 (line from a melanoma biopsy)
MEL-HO = tested on: MEL-HO

| Compound | cleaved PARP positive nuclei fraction (501Mel) | cleaved PARP positive nuclei fraction (A101D) | cleaved PARP positive nuclei fraction (A2058) | cleaved PARP positive nuclei fraction (C32) | cleaved PARP positive nuclei fraction (CBRC008) | cleaved PARP positive nuclei fraction (CBRC014) | cleaved PARP positive nuclei fraction (CBRC016) | cleaved PARP positive nuclei fraction (CBRC017) | cleaved PARP positive nuclei fraction (COLO792) | cleaved PARP positive nuclei fraction (COLO800) | cleaved PARP positive nuclei fraction (COLO829) | cleaved PARP positive nuclei fraction (G361) | cleaved PARP positive nuclei fraction (IPC-298) | cleaved PARP positive nuclei fraction (IST-MEL1) | cleaved PARP positive nuclei fraction (LB2518-MEL) | cleaved PARP positive nuclei fraction (LOXIMVI) | cleaved PARP positive nuclei fraction (A375) | cleaved PARP positive nuclei fraction (CBRC013) | cleaved PARP positive nuclei fraction (MEL-HO) |
| --- | --- | --- | --- | --- | --- | --- | --- | --- | --- | --- | --- | --- | --- | --- | --- | --- | --- | --- | --- |
| Clc1ccc(Nc2nnc(Cc3ccncc3)c3ccccc23)cc1 [vatalanib] + Oc1cc(-c2nc(-c3ccccc3)[nH]c2-c2ccncc2)ccc1Cl [L779450] (first compound 2 µM, partner dose 0.2 µM) | 71.2% | 78.8% | 81% | 76.8% | 40.4% | 126% | 67% | 89.2% | 97.4% | 61.5% | 94.5% | 142% | 203% | 31.3% | 247% | 71.1% |  |  |  |
| Clc1ccc(Nc2nnc(Cc3ccncc3)c3ccccc23)cc1 [vatalanib] + Cc1cc([N+](=O)[O-])ccc1NS(=O)(=O)c1cc(Cl)ccc1Cl [FH535] (first compound 2 µM, partner dose 1 µM) | 80.7% | 65.7% | 22.9% | 129% | 156% | 145% | 455% | 244% | 90.7% | 54.6% | 161% | 220% | 31.8% | 102% | 94.9% | 256% |  |  |  |
| Clc1ccc(Nc2nnc(Cc3ccncc3)c3ccccc23)cc1 [vatalanib] + COC(=O)c1sccc1S(=O)(=O)Nc1ccc(Nc2ccccc2)cc1OC [GSK0660] (first compound 2 µM, partner dose 1 µM) | 58.1% | 9.12% | 23.5% | 59.8% | 177% | 110% | 91.9% | 78.8% | 145% | 155% | 251% | 51.3% | 53.7% | 84.7% | 127% | 126% |  |  |  |
| OCc1c[nH]c2ccccc12 [Indole-3-carbinol] + O=C(Nc1ccccc1)c1cc([N+](=O)[O-])ccc1Cl [GW9662] (first compound 0.8 µM, partner dose 2 µM) | 291% | 49.5% | 152% | 83.3% | 83.7% | 88.2% | 121% | 86% | 141% | 90.4% | 113% | 114% | 104% | 102% | 62.4% | 290% |  |  |  |
| CC(=O)c1c(C)c2cnc(Nc3ccc(N4CCNCC4)cn3)nc2n(C2CCCC2)c1=O [palbociclib] + CCc1ccc(CCOc2ccc(CC3SC(=O)NC3=O)cc2)nc1 [pioglitazone] (first compound 0.04 µM, partner dose 2 µM) | 94.4% | 26.4% | 37.1% | 51.2% | 117% | 113% | 41.8% | 117% | 149% | 26.1% | 92.4% | 140% | 104% | 61.9% | 48.8% | 87.3% |  |  |  |
| OCc1c[nH]c2ccccc12 [Indole-3-carbinol] + O=S(=O)(c1ccccc1)N(CC(F)(F)F)c1ccc(C(O)(C(F)(F)F)C(F)(F)F)cc1 [T0901317] (first compound 0.8 µM, partner dose 1.4 µM) | 77.4% | 40.3% | 59.4% | 42.5% | 164% | 100% | 76.3% | 91.8% | 212% | 134% | 149% | 105% | 47.3% | 106% | 169% | 131% |  |  |  |
| CC(=O)c1c(C)c2cnc(Nc3ccc(N4CCNCC4)cn3)nc2n(C2CCCC2)c1=O [palbociclib] + O=C1NC(=O)/C(=C/c2ccc(-c3ccc(F)cc3O)o2)S1 [AS252424] (first compound 0.04 µM, partner dose 1 µM) | 98.1% | 39.7% | 231% | 136% | 94.6% | 126% | 39.9% | 127% | 111% | 39.5% | 156% | 148% | 160% | 302% | 44% | 147% |  |  |  |
| OCc1c[nH]c2ccccc12 [Indole-3-carbinol] + CCc1ccc(CCOc2ccc(CC3SC(=O)NC3=O)cc2)nc1 [pioglitazone] (first compound 0.8 µM, partner dose 2 µM) | 81.4% | 41.5% | 127% | 280% | 129% | 99.5% | 181% | 88.9% | 46.7% | 225% | 39.8% | 84.8% | 130% | 70.8% | 39.3% | 104% |  |  |  |
| Clc1ccc(Nc2nnc(Cc3ccncc3)c3ccccc23)cc1 [vatalanib] + O=C(Nc1ccccc1)c1cc([N+](=O)[O-])ccc1Cl [GW9662] (first compound 2 µM, partner dose 2 µM) | 195% | 30.6% | 63.9% | 77.6% | 82.1% | 141% | 112% | 110% | 70.7% | 49.7% | 193% | 156% | 46.1% | 92.2% | 111% | 155% |  |  |  |
| Clc1ccc(Nc2nnc(Cc3ccncc3)c3ccccc23)cc1 [vatalanib] + CC(C)CCN1c2nc(Nc3cc(F)c(O)c(F)c3)ncc2N(C)C(=O)C1C [BID1870] (first compound 2 µM, partner dose 0.2 µM) | 155% | 143% | 78.4% | 151% | 56.8% | 110% | 147% | 91% | 125% | 93.8% | 66.9% | 26.9% | 84.3% | 129% | 77.7% | 95% |  |  |  |
| C=CCNC1=C2C[C@@H](C)C[C@H](OC)[C@H](O)[C@@H](C)/C=C(\C)[C@H](OC(N)=O)[C@@H](OC)/C=C\C=C(/C)C(=O)NC(=CC1=O)C2=O [Tanespimycin] + Oc1cc(-c2nc(-c3ccccc3)[nH]c2-c2ccncc2)ccc1Cl [L779450] (first compound 0.002 µM, partner dose 0.2 µM) | 94.4% |  | 115% | 275% | 292% | 115% | 33.9% | 173% | 91.8% | 54.4% | 243% | 134% | 43.5% | 136% | 143% | 120% |  |  |  |
| OCc1c[nH]c2ccccc12 [Indole-3-carbinol] + O=C(O)C(=O)Nc1sc2c(c1C(=O)O)CCNC2 [TCS401] (first compound 0.8 µM, partner dose 1.66667 µM) | 145% | 60.3% | 23.3% | 35.3% | 46.9% | 75.8% | 86.8% | 186% | 31.1% | 73.4% | 104% | 63.1% | 47.7% | 92.4% | 75.3% | 46.8% |  |  |  |
| CC(=O)c1c(C)c2cnc(Nc3ccc(N4CCNCC4)cn3)nc2n(C2CCCC2)c1=O [palbociclib] + O=c1cc(-c2cccc3c2Sc2ccccc2S3)oc(N2CCOCC2)c1 [KU55933] (first compound 0.04 µM, partner dose 1 µM) | 107% | 34.3% | 58.4% | 75.3% | 201% | 104% | 44.3% | 101% | 55.3% | 75.7% | 99.3% | 189% | 147% | 139% | 67.5% | 85.4% |  |  |  |
| CC(=O)c1c(C)c2cnc(Nc3ccc(N4CCNCC4)cn3)nc2n(C2CCCC2)c1=O [palbociclib] + c1cc(-c2cnn3cc(-c4ccc(OCCN5CCCCC5)cc4)cnc23)ccn1 [Dorsomorphin] (first compound 0.04 µM, partner dose 0.4 µM) | 105% | 82.5% | 43.6% | 312% | 36.3% | 134% | 14.1% | 97.9% | 63.4% | 82.3% | 95.5% | 226% | 124% | 78.3% | 166% | 60.9% |  |  |  |
| C=CCNC1=C2C[C@@H](C)C[C@H](OC)[C@H](O)[C@@H](C)/C=C(\C)[C@H](OC(N)=O)[C@@H](OC)/C=C\C=C(/C)C(=O)NC(=CC1=O)C2=O [Tanespimycin] + O=C(Nc1cccc(Cl)c1)Nc1ncc(CCNc2ncnc3ccsc23)s1 [SNS314] (first compound 0.002 µM, partner dose 0.0008 µM) |  | 164% | 38.8% | 186% | 234% | 80.4% | 50.7% | 107% | 155% | 153% | 133% | 107% | 90.2% | 48.3% |  | 527% | 120% | 154% | 398% |
| CC(=O)c1c(C)c2cnc(Nc3ccc(N4CCNCC4)cn3)nc2n(C2CCCC2)c1=O [palbociclib] + COc1ccc(-c2ccc3c(N4CCOCC4)nc(N4C[C@@H](C)O[C@@H](C)C4)nc3n2)cc1CO [KU0063794] (first compound 0.04 µM, partner dose 0.02 µM) | 332% | 32.5% | 138% | 210% | 63.5% | 101% | 124% | 76.4% | 109% | 41.4% | 90% | 127% | 54.5% | 131% | 39.5% | 42.1% |  |  |  |
| OCc1c[nH]c2ccccc12 [Indole-3-carbinol] + O=C1NC(=O)/C(=C/c2ccc(-c3ccc(F)cc3O)o2)S1 [AS252424] (first compound 0.8 µM, partner dose 1 µM) | 78% | 24% | 137% | 81.6% | 98.3% | 91.4% | 103% | 73.2% | 56.3% | 76.5% | 66% | 172% | 77.6% | 144% | 38% | 140% |  |  |  |
| OCc1c[nH]c2ccccc12 [Indole-3-carbinol] + CCN(CC)CCCCNc1ncc2cc(-c3cc(OC)cc(OC)c3)c(NC(=O)NC(C)(C)C)nc2n1 [PD173074] (first compound 0.8 µM, partner dose 0.1 µM) | 186% | 33.4% | 174% | 75.5% | 82.5% | 81.9% | 95% | 99.8% | 63.8% | 42.8% | 111% | 37.7% | 86.2% | 173% | 85.6% | 113% |  |  |  |
| OCc1c[nH]c2ccccc12 [Indole-3-carbinol] + N#Cc1c(O)c2c(-c3ccc(-c4ccccc4O)cc3)csc2[nH]c1=O [A769662] (first compound 0.8 µM, partner dose 2 µM) | 76.3% | 12.8% | 69.1% | 34.5% | 60.7% | 88.1% | 79% | 82.1% | 127% | 122% | 244% | 96% | 89.6% | 136% | 69.5% | 117% |  |  |  |

A section from further up:

| Compound | cleaved PARP positive nuclei fraction (501Mel) | cleaved PARP positive nuclei fraction (A101D) | cleaved PARP positive nuclei fraction (A2058) | cleaved PARP positive nuclei fraction (C32) | cleaved PARP positive nuclei fraction (CBRC008) | cleaved PARP positive nuclei fraction (CBRC014) | cleaved PARP positive nuclei fraction (CBRC016) | cleaved PARP positive nuclei fraction (CBRC017) | cleaved PARP positive nuclei fraction (COLO792) | cleaved PARP positive nuclei fraction (COLO800) | cleaved PARP positive nuclei fraction (COLO829) | cleaved PARP positive nuclei fraction (G361) | cleaved PARP positive nuclei fraction (IPC-298) | cleaved PARP positive nuclei fraction (IST-MEL1) | cleaved PARP positive nuclei fraction (LB2518-MEL) | cleaved PARP positive nuclei fraction (LOXIMVI) | cleaved PARP positive nuclei fraction (A375) | cleaved PARP positive nuclei fraction (CBRC013) | cleaved PARP positive nuclei fraction (MEL-HO) |
| --- | --- | --- | --- | --- | --- | --- | --- | --- | --- | --- | --- | --- | --- | --- | --- | --- | --- | --- | --- |
| CC(=O)c1c(C)c2cnc(Nc3ccc(N4CCNCC4)cn3)nc2n(C2CCCC2)c1=O [palbociclib] + O=C1NC(=O)/C(=C/c2ccc(-c3ccc(F)cc3O)o2)S1 [AS252424] (first compound 0.04 µM, partner dose 1 µM) | 98.1% | 39.7% | 231% | 136% | 94.6% | 126% | 39.9% | 127% | 111% | 39.5% | 156% | 148% | 160% | 302% | 44% | 147% |  |  |  |
| OCc1c[nH]c2ccccc12 [Indole-3-carbinol] + CCc1ccc(CCOc2ccc(CC3SC(=O)NC3=O)cc2)nc1 [pioglitazone] (first compound 0.8 µM, partner dose 2 µM) | 81.4% | 41.5% | 127% | 280% | 129% | 99.5% | 181% | 88.9% | 46.7% | 225% | 39.8% | 84.8% | 130% | 70.8% | 39.3% | 104% |  |  |  |

From the supplement of paper PMC4604168 (melanoma cell lines)
